Here are results for five molecules from paper PMC9713718.

Amino acid sequences for entries named in this document (tags omitted).
UniProt P58801: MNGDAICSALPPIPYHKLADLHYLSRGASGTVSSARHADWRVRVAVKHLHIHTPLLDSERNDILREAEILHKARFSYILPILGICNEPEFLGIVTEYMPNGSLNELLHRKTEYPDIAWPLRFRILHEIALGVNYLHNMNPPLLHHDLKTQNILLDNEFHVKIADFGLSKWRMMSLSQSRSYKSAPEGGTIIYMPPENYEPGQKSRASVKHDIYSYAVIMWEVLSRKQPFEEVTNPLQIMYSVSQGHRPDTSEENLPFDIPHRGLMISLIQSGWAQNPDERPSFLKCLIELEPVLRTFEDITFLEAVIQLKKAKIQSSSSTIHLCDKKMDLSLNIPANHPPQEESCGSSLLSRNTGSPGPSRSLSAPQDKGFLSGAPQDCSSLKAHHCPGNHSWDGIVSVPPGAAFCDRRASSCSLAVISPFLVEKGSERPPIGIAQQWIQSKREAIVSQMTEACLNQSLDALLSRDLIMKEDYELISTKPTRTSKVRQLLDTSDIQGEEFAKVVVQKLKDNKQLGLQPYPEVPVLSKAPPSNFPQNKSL

Read-outs that look alike come from different tables or passages of the source. No constants are given. Whether binding was seen depends on the method and setting. For some of these results: Binding seen in cells or lysates may run through a third protein. Some binding calls cover weakened binding; strength is not graded here. For some of these results: Tags and fused reporters may be left off the sequences shown.

For one assay, the target named is Flag-NOD2 (UniProt Q9HC29). The experiment in a line: co-IP; HEK293T cells transiently transfected with tagged proteins; NP-40 lysis buffer, antibody 2 h at 4°C, protein G Dynabeads, washed with ice-cold PBS; Western blot; for p62 with NOD1, NOD2 or RIPK2 also with and without co-expressed IRGM. (In general: Immunoblotting shows a protein as a band on a membrane.)

A further assay concerns the target T1, Flag-NOD1 (UniProt Q9Y239).
T1 sequence: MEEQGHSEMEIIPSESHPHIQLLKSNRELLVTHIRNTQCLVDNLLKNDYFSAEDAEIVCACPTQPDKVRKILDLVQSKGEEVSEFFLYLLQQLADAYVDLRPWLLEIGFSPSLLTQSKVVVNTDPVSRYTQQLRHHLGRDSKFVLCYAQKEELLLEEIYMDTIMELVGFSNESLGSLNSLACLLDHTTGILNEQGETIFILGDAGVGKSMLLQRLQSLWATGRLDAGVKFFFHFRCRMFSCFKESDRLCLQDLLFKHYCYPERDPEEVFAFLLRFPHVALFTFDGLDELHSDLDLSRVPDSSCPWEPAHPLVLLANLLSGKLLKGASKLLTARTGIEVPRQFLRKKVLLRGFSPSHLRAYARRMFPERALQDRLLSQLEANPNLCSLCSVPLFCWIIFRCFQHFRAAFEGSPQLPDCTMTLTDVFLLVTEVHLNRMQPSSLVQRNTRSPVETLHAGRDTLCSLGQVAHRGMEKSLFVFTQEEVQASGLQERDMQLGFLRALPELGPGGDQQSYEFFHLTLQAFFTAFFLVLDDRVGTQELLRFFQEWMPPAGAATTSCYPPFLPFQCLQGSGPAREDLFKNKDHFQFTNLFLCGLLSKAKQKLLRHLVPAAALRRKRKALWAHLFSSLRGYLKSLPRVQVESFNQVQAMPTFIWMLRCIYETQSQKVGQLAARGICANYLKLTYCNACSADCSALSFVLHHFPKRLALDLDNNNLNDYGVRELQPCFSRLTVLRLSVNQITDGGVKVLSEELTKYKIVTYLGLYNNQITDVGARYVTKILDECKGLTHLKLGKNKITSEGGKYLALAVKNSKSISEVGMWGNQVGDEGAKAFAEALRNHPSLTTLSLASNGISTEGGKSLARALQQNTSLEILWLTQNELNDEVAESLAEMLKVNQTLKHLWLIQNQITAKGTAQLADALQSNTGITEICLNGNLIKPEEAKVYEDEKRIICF
The assay is described as above.

In assay [1] the target is T2, GFP-IRGM (UniProt A1A4Y4).
T2 sequence: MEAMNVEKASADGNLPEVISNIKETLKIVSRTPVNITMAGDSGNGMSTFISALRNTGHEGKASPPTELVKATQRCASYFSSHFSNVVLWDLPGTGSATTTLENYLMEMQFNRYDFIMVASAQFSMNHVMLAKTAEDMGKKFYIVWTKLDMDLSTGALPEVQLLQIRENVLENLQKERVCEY
The experiment in a line: co-IP; sequential immunoprecipitation from HEK293T lysate (Flag-RIPK2 or Flag vector, HA-p62, GFP-IRGM, 12 h): first IP with Flag antibody, elution with flag peptide, second IP with anti-GFP.

Assay [2] addresses RIPK2, endogenous in mouse BMDMs and mouse colon (mouse (endogenous in BMDMs and colon)) (UniProt P58801). The experiment in a line: soluble-insoluble fractionation with Western blot; endogenous proteins; cells or tissue lysed in 1% Triton X-100 buffer (150 mM NaCl, 50 mM Tris pH 7.5), 17,000 g, pellet resuspended in 1% SDS; oligomers seen in the insoluble fraction; cells infected with S. flexneri (also other bacteria, iE-DAP or MDP; RIPK2 knock-down or knock-out, Irgm1 knock-out, GSK583 as treatments).

Assay [3] deals with T3, GST-IRGM (UniProt A1A4Y4).
T3 sequence: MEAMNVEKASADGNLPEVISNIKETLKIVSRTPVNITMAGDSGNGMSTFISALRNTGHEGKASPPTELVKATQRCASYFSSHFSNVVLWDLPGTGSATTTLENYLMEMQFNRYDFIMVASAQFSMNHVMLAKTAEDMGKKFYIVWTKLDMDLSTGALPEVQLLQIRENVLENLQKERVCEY
The experiment in a line: pull-down; GST fusion purified on Glutathione Sepharose beads incubated with [35S]-labelled in vitro translated Myc-tagged protein in NETN-E buffer (50 mM Tris pH 8.0, 100 mM NaCl, 6 mM EDTA, 0.5% NP-40, 1 mM DTT), 2 h at 4°C; autoradiography; only the target purified.

Assay [4] deals with T2, GFP-IRGM. The experiment in a line: co-IP; HEK293T cells transiently transfected with tagged proteins; NP-40 lysis buffer, antibody 2 h at 4°C, protein G Dynabeads, washed with ice-cold PBS; Western blot; for p62 with NOD1, NOD2 or RIPK2 also with and without co-expressed IRGM.
For assay [5], the target named is T3, GST-IRGM. The experiment in a line: pull-down; GST fusion purified on Glutathione Sepharose beads incubated with [35S]-labelled in vitro translated Myc-tagged protein in NETN-E buffer (50 mM Tris pH 8.0, 100 mM NaCl, 6 mM EDTA, 0.5% NP-40, 1 mM DTT), 2 h at 4°C; autoradiography; only the target purified. The source holds these as a separate data set.

Take HA-p62 (from UniProt Q13501 1-440): the binding result in the assay with Flag-NOD2, with Flag-NOD1 and in the assay with GFP-IRGM [1] was “binds” each time. On to “RIPK2, endogenous in mouse BMDMs and mouse colon (from UniProt P58801 1-539)”, for which the binding entry in assay [2] is given as “binds”. For the molecule “myc-NOD2, in vitro translated (from UniProt Q9HC29 1-1040)”, the binding result with GST-IRGM [3] is “binds”.

B1: Flag-NOD1 (protein, UniProt Q9Y239 1-953)
chain: MEEQGHSEMEIIPSESHPHIQLLKSNRELLVTHIRNTQCLVDNLLKNDYFSAEDAEIVCACPTQPDKVRKILDLVQSKGEEVSEFFLYLLQQLADAYVDLRPWLLEIGFSPSLLTQSKVVVNTDPVSRYTQQLRHHLGRDSKFVLCYAQKEELLLEEIYMDTIMELVGFSNESLGSLNSLACLLDHTTGILNEQGETIFILGDAGVGKSMLLQRLQSLWATGRLDAGVKFFFHFRCRMFSCFKESDRLCLQDLLFKHYCYPERDPEEVFAFLLRFPHVALFTFDGLDELHSDLDLSRVPDSSCPWEPAHPLVLLANLLSGKLLKGASKLLTARTGIEVPRQFLRKKVLLRGFSPSHLRAYARRMFPERALQDRLLSQLEANPNLCSLCSVPLFCWIIFRCFQHFRAAFEGSPQLPDCTMTLTDVFLLVTEVHLNRMQPSSLVQRNTRSPVETLHAGRDTLCSLGQVAHRGMEKSLFVFTQEEVQASGLQERDMQLGFLRALPELGPGGDQQSYEFFHLTLQAFFTAFFLVLDDRVGTQELLRFFQEWMPPAGAATTSCYPPFLPFQCLQGSGPAREDLFKNKDHFQFTNLFLCGLLSKAKQKLLRHLVPAAALRRKRKALWAHLFSSLRGYLKSLPRVQVESFNQVQAMPTFIWMLRCIYETQSQKVGQLAARGICANYLKLTYCNACSADCSALSFVLHHFPKRLALDLDNNNLNDYGVRELQPCFSRLTVLRLSVNQITDGGVKVLSEELTKYKIVTYLGLYNNQITDVGARYVTKILDECKGLTHLKLGKNKITSEGGKYLALAVKNSKSISEVGMWGNQVGDEGAKAFAEALRNHPSLTTLSLASNGISTEGGKSLARALQQNTSLEILWLTQNELNDEVAESLAEMLKVNQTLKHLWLIQNQITAKGTAQLADALQSNTGITEICLNGNLIKPEEAKVYEDEKRIICF
Consider B1, for which the binding result in the assay with GFP-IRGM [4] is given as “binds”.

B2: myc-NOD1, in vitro translated (protein, UniProt Q9Y239 1-953)
chain: MEEQGHSEMEIIPSESHPHIQLLKSNRELLVTHIRNTQCLVDNLLKNDYFSAEDAEIVCACPTQPDKVRKILDLVQSKGEEVSEFFLYLLQQLADAYVDLRPWLLEIGFSPSLLTQSKVVVNTDPVSRYTQQLRHHLGRDSKFVLCYAQKEELLLEEIYMDTIMELVGFSNESLGSLNSLACLLDHTTGILNEQGETIFILGDAGVGKSMLLQRLQSLWATGRLDAGVKFFFHFRCRMFSCFKESDRLCLQDLLFKHYCYPERDPEEVFAFLLRFPHVALFTFDGLDELHSDLDLSRVPDSSCPWEPAHPLVLLANLLSGKLLKGASKLLTARTGIEVPRQFLRKKVLLRGFSPSHLRAYARRMFPERALQDRLLSQLEANPNLCSLCSVPLFCWIIFRCFQHFRAAFEGSPQLPDCTMTLTDVFLLVTEVHLNRMQPSSLVQRNTRSPVETLHAGRDTLCSLGQVAHRGMEKSLFVFTQEEVQASGLQERDMQLGFLRALPELGPGGDQQSYEFFHLTLQAFFTAFFLVLDDRVGTQELLRFFQEWMPPAGAATTSCYPPFLPFQCLQGSGPAREDLFKNKDHFQFTNLFLCGLLSKAKQKLLRHLVPAAALRRKRKALWAHLFSSLRGYLKSLPRVQVESFNQVQAMPTFIWMLRCIYETQSQKVGQLAARGICANYLKLTYCNACSADCSALSFVLHHFPKRLALDLDNNNLNDYGVRELQPCFSRLTVLRLSVNQITDGGVKVLSEELTKYKIVTYLGLYNNQITDVGARYVTKILDECKGLTHLKLGKNKITSEGGKYLALAVKNSKSISEVGMWGNQVGDEGAKAFAEALRNHPSLTTLSLASNGISTEGGKSLARALQQNTSLEILWLTQNELNDEVAESLAEMLKVNQTLKHLWLIQNQITAKGTAQLADALQSNTGITEICLNGNLIKPEEAKVYEDEKRIICF
modifications: [35S] radiolabelled
Regarding B2, the binding entry with GST-IRGM [5] is listed as “binds”.
